These are literature values, as cited in US20230073301A1, “TISSUE DOSING FOR INTRALUMINAL LOCAL DRUG DELIVERY” (ISOLA THERAPEUTICS, INC., priority 2020, published 2023).

For this data set the following is noted: cited from earlier work.

Regarding `CC(=O)O[C@H]1C(=O)[C@@]2(C)[C@H]([C@H](OC(=O)c3ccccc3)[C@]3(O)C[C@H](OC(=O)[C@H](O)[C@@H](NC(=O)c4ccccc4)c4ccccc4)C(C)=C1C3(C)C)[C@]1(OC(C)=O)CO[C@@H]1C[C@@H]2O` [PTX, 5β,20-Epoxy-1,2α,4,7β,10β,13α-hexahydroxytax-11-en-9-one 4,10-diacetate 2-benzoate 13-ester with (2R,3S)-N-benzoyl-3-phenylisoserine], the solubility in water result is “insoluble in water”.
